No constants are given. Whether binding was seen depends on the method and setting. For some of these results: Sequences can lack the tags named with a protein.
Assays:
[1] = biological target: T1, GST-tagged Tof1_N (1-638 aa) (Saccharomyces cerevisiae) (UniProt P53840); assay: pull-down; 1.5 μM GST fusion proteins (Tof1_N, Tof1_M, Tof1_C, Csm3) as bait on glutathione agarose, 3 μM fl FACT or FACT truncations as prey, 90 min at 4°C, washed with buffer G (300 mM NaCl), eluted with glutathione, SDS-PAGE; both purified
T1 sequence: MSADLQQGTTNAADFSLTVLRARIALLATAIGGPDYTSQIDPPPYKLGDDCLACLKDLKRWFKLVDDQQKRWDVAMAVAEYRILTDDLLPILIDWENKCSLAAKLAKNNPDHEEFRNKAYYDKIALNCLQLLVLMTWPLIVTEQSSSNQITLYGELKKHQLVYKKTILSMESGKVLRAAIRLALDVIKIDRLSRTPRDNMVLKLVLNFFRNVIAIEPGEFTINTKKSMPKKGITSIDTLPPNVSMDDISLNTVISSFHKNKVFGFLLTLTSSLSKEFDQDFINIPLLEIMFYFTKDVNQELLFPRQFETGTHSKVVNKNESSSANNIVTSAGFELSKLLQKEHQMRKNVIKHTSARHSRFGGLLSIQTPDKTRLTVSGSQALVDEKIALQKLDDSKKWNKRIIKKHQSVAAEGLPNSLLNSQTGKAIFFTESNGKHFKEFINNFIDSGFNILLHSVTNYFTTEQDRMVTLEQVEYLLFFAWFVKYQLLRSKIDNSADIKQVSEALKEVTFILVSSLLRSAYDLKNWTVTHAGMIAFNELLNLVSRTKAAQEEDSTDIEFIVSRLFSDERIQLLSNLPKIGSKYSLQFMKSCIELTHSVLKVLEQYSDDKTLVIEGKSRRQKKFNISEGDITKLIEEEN

Chains of the proteins cited; added tags and fusions are not shown. Lines headed by an entry give the natural chain unless they say otherwise; changes in a name come on top.
UniProt P32558: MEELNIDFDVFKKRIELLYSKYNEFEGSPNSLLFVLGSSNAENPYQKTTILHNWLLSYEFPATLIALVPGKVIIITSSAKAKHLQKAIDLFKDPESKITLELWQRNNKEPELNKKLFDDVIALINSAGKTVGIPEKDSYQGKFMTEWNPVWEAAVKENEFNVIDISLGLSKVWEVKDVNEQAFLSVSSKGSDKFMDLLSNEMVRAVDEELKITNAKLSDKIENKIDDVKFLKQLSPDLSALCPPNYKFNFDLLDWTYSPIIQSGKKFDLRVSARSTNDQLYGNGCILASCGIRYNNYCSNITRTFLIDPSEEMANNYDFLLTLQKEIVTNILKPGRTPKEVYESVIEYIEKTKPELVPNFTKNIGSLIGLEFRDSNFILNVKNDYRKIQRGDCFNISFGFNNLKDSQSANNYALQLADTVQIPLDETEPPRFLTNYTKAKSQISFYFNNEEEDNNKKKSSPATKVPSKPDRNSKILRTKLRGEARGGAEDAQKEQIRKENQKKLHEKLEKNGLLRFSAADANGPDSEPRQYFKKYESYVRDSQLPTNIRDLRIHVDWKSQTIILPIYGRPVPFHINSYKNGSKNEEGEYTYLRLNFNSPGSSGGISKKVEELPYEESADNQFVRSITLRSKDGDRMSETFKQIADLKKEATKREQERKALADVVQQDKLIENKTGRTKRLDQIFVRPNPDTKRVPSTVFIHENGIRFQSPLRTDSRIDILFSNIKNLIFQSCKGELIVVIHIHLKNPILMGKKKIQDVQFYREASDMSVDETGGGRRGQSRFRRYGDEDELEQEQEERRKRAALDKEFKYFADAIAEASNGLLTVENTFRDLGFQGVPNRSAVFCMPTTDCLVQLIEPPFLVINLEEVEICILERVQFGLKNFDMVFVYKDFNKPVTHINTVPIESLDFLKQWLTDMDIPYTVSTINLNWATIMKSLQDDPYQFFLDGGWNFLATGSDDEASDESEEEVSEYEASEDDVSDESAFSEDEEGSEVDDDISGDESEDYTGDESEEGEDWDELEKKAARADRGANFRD
UniProt Q04636: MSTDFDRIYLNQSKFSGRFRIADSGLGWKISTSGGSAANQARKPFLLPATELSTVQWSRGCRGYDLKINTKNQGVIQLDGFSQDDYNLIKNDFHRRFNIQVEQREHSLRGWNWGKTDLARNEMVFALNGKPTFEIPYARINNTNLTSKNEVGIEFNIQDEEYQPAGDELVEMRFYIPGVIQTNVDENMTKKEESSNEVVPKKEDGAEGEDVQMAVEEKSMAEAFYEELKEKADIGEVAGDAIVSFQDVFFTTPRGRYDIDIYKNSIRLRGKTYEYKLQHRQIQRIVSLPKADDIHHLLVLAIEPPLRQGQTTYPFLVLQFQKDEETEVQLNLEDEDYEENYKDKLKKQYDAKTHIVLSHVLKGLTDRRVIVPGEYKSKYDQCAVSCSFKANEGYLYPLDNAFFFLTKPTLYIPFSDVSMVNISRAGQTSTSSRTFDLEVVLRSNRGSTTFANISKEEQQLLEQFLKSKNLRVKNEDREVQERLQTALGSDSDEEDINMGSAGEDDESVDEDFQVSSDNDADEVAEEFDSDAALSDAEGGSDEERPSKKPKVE
UniProt P29469: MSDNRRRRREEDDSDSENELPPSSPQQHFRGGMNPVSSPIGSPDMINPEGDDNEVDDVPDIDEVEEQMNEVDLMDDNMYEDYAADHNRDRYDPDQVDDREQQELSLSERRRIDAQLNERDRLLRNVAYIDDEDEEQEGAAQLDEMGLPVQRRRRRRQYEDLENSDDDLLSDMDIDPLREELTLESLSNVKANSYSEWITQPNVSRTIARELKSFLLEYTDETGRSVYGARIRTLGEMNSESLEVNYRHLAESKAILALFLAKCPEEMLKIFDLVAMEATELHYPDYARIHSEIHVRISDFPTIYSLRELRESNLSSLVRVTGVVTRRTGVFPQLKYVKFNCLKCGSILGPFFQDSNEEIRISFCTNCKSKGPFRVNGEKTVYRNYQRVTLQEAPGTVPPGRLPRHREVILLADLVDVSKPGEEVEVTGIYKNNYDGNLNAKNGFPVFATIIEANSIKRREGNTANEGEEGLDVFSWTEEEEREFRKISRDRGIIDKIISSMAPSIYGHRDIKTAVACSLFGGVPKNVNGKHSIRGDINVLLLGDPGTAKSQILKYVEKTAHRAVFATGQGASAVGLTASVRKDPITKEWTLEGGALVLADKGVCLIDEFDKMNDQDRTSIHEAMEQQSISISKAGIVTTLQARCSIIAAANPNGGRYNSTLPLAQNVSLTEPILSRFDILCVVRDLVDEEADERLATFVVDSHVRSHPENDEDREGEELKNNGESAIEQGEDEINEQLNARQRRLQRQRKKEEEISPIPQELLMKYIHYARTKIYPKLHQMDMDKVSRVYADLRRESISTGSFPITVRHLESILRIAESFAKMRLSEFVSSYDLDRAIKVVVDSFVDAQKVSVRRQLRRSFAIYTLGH

[2] = biological target: T2, GST-tagged Tof1_M (793-937 aa) (Saccharomyces cerevisiae) (UniProt P53840); assay: as above
T2 sequence: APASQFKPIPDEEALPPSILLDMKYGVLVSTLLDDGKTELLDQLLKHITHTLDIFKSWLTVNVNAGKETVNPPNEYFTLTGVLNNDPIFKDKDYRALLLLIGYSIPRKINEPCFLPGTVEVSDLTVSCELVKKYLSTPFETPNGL

[3] = biological target: T3, GST-tagged fl Csm3 (Saccharomyces cerevisiae) (UniProt Q04659); assay: as above
T3 sequence: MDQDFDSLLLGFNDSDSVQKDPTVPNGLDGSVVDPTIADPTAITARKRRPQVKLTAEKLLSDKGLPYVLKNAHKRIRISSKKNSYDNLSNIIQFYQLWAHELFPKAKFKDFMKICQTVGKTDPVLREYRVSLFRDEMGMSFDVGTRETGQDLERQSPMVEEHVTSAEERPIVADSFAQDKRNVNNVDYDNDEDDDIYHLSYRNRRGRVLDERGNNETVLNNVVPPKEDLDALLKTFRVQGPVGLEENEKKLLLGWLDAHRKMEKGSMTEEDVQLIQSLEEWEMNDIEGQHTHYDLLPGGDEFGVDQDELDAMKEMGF

[4] = biological target: FACT consisting of Spt16 and GST-tagged Pob3 (Saccharomyces cerevisiae) (UniProt P32558+Q04636); assay: pull-down; 0.5 μM GST-Pob3Spt16 as bait with 1 μM replisome factor, on ice 30 min, immobilised on glutathione agarose 90 min at 4°C, washed with buffer G (50 mM HEPES-NaOH pH 7.6, 300 mM NaCl, 0.05% NP-40), eluted with glutathione, SDS-PAGE; both purified

binding [1] | binding [2] | binding [3] | binding [4] | Substance
no binding (tested: 3 μM) | no binding (tested: 3 μM) | no binding (tested: 3 μM) |  | full-length (fl) FACT (Spt16-Pob3) (from UniProt P32558 1-1035; Q04636 1-552) (complex)
 |  |  | no binding (tested: 1 μM) | MCM-Cdt1 (from UniProt P29469 1-868; P24279 1-971; P30665 1-933; P29496 1-775; P53091 1-1017; P38132 1-845; P47112 1-604) (complex)

— PMC8860610
